For at least one entry, the source does not settle the construct or the ends of the probe.
Biological target: alpha-CTD (RNA polymerase alpha subunit C-terminal domain) (Bacillus licheniformis B1391) (UniProt Q65P79)
Assay: EMSA
Details: 0.1-0.3 g/L protein; EMSA: 10 nM probe, 25 C 20 min; recombinant protein; residues 229-314; protein details: His-tag (pET-28a, stated fused at the 3' end); label: 5'-biotin (reverse primer); probe letters rebuilt from the primers and the genome

Amino acid sequences for entries named in this document (tags omitted). Residues count along the entry.
UniProt Q65P79, 229-314: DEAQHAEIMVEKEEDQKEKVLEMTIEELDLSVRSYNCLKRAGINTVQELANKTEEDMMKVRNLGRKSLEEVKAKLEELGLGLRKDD

## CATCTCAATTATACAAAGAAGGAAAGTTTATGTATAGATATTTTCGAATATTTAACTTATTGGACACAATAATTTTGAAATAGGGCATTTTGCACAAGAAATAATCCAAAATAGCCCAAAAATAATCCAACAATTCTAATTATTGTTATAATAATGCTGAGCTCCCAAAATTAATTAAGAGGTGAAGGAAA (double strand) [PLan promoter probe]
  binding result: binds

From publication PMC9655642
